Source: PubChem BioAssay
This list was built around the results that the source calls inconclusive (neither active nor inactive); the mix of calls is not that of the screen. The source made the active and inactive calls. The rule behind the calls is not given here.

Experiment: general cell-killing toxicity readout – plate reader, dry powder samples, cytotoxicity control for PAX8 inhibitor project, dose response (AID 743021)
Settings: cell line, non-specific cytotoxicity counter-screen; at 35 µM (top of the series) unless noted

Compound	activity change, negative = cytotoxicity
CCCC#Cc1ccc([C@H]2[C@@H](CO)N(C(=O)C3CCCCC3)[C@H]2C#N)cc1	inconclusive: -34.3%
COc1ccc(S(=O)(=O)Nc2ccc3c(c2)C(=O)N([C@@H](C)CO)C[C@H](C)[C@H](CN(C)Cc2ccc(C(F)(F)F)cc2)OCCCC[C@H](C)O3)cc1	inconclusive: -42.3%
C[C@H](CO)N1C[C@H](C)[C@@H](CN(C)Cc2ccc(C(F)(F)F)cc2)Oc2ccc(NS(=O)(=O)c3ccccc3)cc2CC1=O	inconclusive: -47.2%
CCCNC(=O)N(C)C[C@H]1N[C@@H](CO)[C@@H]1c1ccc(C2=CCCCC2)cc1	inconclusive: -93.7%
C[C@H](CO)N1C[C@H](C)[C@@H](CN(C)S(=O)(=O)c2ccc(Cl)cc2)OCCCC[C@H](C)Oc2ccc(NS(=O)(=O)c3ccccc3)cc2C1=O	inconclusive: -11.7%
C[C@@H]1CN([C@H](C)CO)C(=O)c2cc(NC(=O)CCCCCC(=O)Nc3ccccc3N)ccc2O[C@@H]1CN(C)Cc1ccc(C(F)(F)F)cc1	inconclusive: -23.6%
CN(C[C@H]1N[C@@H](CO)[C@@H]1c1ccc(C2=CCCC2)cc1)C(=O)c1ccncc1	inconclusive: -40.7%

A draw from above in order of length of the SMILES, high to low:
Compound	activity change, negative = cytotoxicity
COc1ccc(S(=O)(=O)Nc2ccc3c(c2)C(=O)N([C@@H](C)CO)C[C@H](C)[C@H](CN(C)Cc2ccc(C(F)(F)F)cc2)OCCCC[C@H](C)O3)cc1	inconclusive: -42.3%
C[C@@H]1CN([C@H](C)CO)C(=O)c2cc(NC(=O)CCCCCC(=O)Nc3ccccc3N)ccc2O[C@@H]1CN(C)Cc1ccc(C(F)(F)F)cc1	inconclusive: -23.6%
CCCC#Cc1ccc([C@H]2[C@@H](CO)N(C(=O)C3CCCCC3)[C@H]2C#N)cc1	inconclusive: -34.3%

Experiment: IGROV1 cell killing – plate reader, dry powder samples, PAX8 inhibitor project, dose response (AID 743043);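 note: more negative means fewer viable cells or more cytotoxicity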
Settings: IGROV1 ovarian cancer cell cytotoxicity; at 35 µM (top of the series) unless noted

Compound	activity change, negative = cytotoxicity
COc1ccc(CN2[C@H](CO)[C@H]3c4ccccc4NC[C@H]32)cc1	inactive: -21.8%
C[C@@H]1CN([C@@H](C)CO)S(=O)(=O)c2ccc(C#C[C@@H](C)O)cc2O[C@H]1CN(C)Cc1ccc(-c2ccccc2)cc1	inconclusive: -48.2%
COc1ccccc1C#Cc1ccc2c(c1)O[C@@H](CN(C)Cc1ccncc1)[C@H](C)CN([C@@H](C)CO)S2(=O)=O	inactive: 8.84%
C[C@H]1CN([C@@H](C)CO)S(=O)(=O)c2ccc(C#Cc3ccc(F)cc3)cc2O[C@@H]1CN(C)C(=O)NC1CCCCC1	inactive: 17.3%
C[C@@H]1CCCCO[C@H](CN(C)Cc2ccc(C(F)(F)F)cc2)[C@H](C)CN([C@@H](C)CO)C(=O)c2cc(NC(=O)Nc3ccc(F)cc3)ccc2O1	inactive: -9.03%
C[C@@H]1CN([C@@H](C)CO)C(=O)c2cc(NC(=O)Nc3ccc(C(F)(F)F)cc3)ccc2O[C@@H](C)CCCCO[C@@H]1CN(C)Cc1ccncc1	inconclusive: -56.9%
C[C@@H]1CN([C@@H](C)CO)C(=O)Cc2cc(NC(=O)c3ccncc3)ccc2O[C@@H]1CN(C)Cc1ccc(-c2ccccc2)cc1	inactive: -1.69%
Cc1ccc(S(=O)(=O)Nc2ccc3c(c2)C(=O)N([C@H](C)CO)C[C@@H](C)[C@H](CN(C)Cc2ccc(C(F)(F)F)cc2)OCCCC[C@H](C)O3)cc1	inconclusive: -89%
O=C(C[C@H]1CC[C@@H]2[C@H](COC[C@@H](O)CN2Cc2ccc(F)cc2)O1)NCc1ccccc1Cl	inactive: 4.89%
COc1ccc(C#Cc2ccc([C@@H]3[C@H](CO)N4CCCCN(C(=O)Nc5ccc(F)cc5)C[C@@H]34)cc2)cc1	inconclusive: -115% [at 30 µM]
C[C@H]1CCCCO[C@@H](CN(C)Cc2ccc(C(F)(F)F)cc2)[C@@H](C)CN([C@@H](C)CO)C(=O)c2cc(NS(=O)(=O)c3ccc(Cl)cc3)ccc2O1	inconclusive: -32%
COc1cccc(C#Cc2ccc([C@H]3[C@@H](CO)N(C(=O)C4CCCC4)[C@H]3C#N)cc2)c1	inconclusive: -48.4%
